# Some of these results come from one statement about several compounds together.
# Assay: Intraocular pressure (IOP) lowering in normotensive rats
# Assay type: in vivo, rat
# Conditions: Tonolab tonometer
smiles,measurement,value
CC(C)(C)NC[C@H](O)COc1nsnc1N1CCOCC1 [Timolol],decrease the IOP,2-3 mmHg

# Source: patent US8912209B2, “Rock inhibitors” (Amakem NV, priority 2010, dated 2014)
